We go through 1 molecule from doi:10.1101/2024.05.16.594391.

No constants are given. Whether binding was seen depends on the method and setting. Binding seen in cells or lysates may run through a third protein. Some binding calls cover weakened binding; strength is not graded here. Tags and fused reporters may be left off the sequences shown.

This test concerns the target mitochondrial thioredoxin reductase (TXNRD2), V5-tagged (human) (UniProt Q9NNW7). Briefly: co-IP.

B1: mitochondrial thioredoxin (TXN2), myc-tagged (protein, UniProt Q99757 60-166)
chain: TTFNIQDGPDFQDRVVNSETPVVVDFHAQWCGPCKILGPRLEKMVAKQHGKVVMAKVDIDDHTDLAIEYEVSAVPTVLAMKNGDVVDKFVGIKDEDQLEAFLKKLIG
B1: the binding result is recorded as “binds”.
